Measured values from PMC12533369, “Citrullination of AKT2 Catalyzed by PAD1 Facilitates the Maintenance of Stemness Characteristics of Ovarian Cancer Stem‐Like Cells in Ovarian Cancer” (Advanced Science, 2025).

Protein sequences, listed by entry. Tags and fused reporters are not part of them.
UniProt P31751: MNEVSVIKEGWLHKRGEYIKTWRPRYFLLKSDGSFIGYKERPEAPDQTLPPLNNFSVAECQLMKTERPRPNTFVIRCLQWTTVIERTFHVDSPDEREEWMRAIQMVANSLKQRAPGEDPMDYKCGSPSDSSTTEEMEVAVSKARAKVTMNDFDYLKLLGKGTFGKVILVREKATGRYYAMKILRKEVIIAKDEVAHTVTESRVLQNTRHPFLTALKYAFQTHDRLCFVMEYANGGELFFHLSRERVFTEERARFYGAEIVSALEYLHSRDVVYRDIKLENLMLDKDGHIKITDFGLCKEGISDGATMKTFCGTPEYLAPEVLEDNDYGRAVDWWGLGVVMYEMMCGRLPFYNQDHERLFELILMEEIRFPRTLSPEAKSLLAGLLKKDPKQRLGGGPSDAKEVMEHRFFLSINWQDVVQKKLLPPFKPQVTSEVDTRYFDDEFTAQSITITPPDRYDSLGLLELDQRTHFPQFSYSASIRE

Biological target: T1, peptidylarginine deiminase 1 (PAD1), endogenous (human (endogenous in OVCAR3)) (UniProt Q9ULC6)
T1 sequence: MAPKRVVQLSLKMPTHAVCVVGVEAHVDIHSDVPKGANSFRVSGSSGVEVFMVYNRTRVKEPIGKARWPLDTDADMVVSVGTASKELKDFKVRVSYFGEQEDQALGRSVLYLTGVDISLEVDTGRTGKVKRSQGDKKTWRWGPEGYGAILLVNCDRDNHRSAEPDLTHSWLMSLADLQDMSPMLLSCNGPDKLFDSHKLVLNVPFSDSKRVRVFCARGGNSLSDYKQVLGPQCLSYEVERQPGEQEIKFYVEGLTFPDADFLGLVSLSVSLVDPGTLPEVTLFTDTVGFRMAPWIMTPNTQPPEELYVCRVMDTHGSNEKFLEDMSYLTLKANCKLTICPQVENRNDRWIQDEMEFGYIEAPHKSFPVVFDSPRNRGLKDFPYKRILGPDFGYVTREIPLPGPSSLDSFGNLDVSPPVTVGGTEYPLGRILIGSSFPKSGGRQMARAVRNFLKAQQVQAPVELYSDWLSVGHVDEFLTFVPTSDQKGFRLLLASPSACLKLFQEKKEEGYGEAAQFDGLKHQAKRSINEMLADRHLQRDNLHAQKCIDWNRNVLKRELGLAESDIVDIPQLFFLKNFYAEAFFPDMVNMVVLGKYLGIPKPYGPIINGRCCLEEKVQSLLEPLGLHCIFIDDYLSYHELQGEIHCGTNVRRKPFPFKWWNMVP
Experiment: affinity purification with mass spectrometry; co-immunoprecipitation from OVCAR3 cells with anti-PAD1 antibody, then LC-MS/MS; endogenous proteins

Substance: AKT2, endogenous (from UniProt P31751 1-481) (enzyme)
- binding: binds

These are yes or no findings as the source states them, for the method shown. Binding seen in cells or lysates may run through a third protein. Here binding means that the protein was enriched with, or labelled near, the bait; the list need not be complete.
